# In the supplement of paper PMC8728848:
# Some of the results follow.
# B1: CD34 (Homo sapiens), P28906 (protein)
# chain: MGSSHHHHHHSSGLVPRGSHMSTSLATSPTKPYTSSSPILSDIKAEIKCSGIREVKLTQGICLEQNKTSSCAEFKKDRGEGLARVLCGEEQADADAGAQVCSLLLAQSEVRPQCLLLVLANRTEISSKLQLMKKHQSDLKKLGILDFTEQDVASHQSYSQKT
# Key:
# Experiment in all cases: glycan array binding signal (z-score within array); higher = stronger binding
# Conditions in all cases: glycan notation: IUPAC condensed, linker removed
# [1] = molecular target: Gal(b1-4)GlcNAc(b1-3)Gal(b1-4)GlcNAc(b1-2)Man(a1-3)[Gal(b1-4)GlcNAc(b1-3)Gal(b1-4)GlcNAc(b1-2)Man(a1-6)]Man(b1-4)GlcNAc(b1-4)[Fuc(a1-6)]GlcNAc
# Method in brief: (§1)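 The Consortium for Functional Glycomics database supplied 3228 glycan arrays, of which those lacking an available protein sequence were dropped. The binding signal, a within-array Z-score, was averaged across arrays of the same protein sequence and across linkers. Negative scores can be read as non-binding.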
# [2] = molecular target: Gal(b1-4)GlcNAc(b1-3)Gal(b1-4)GlcNAc(b1-2)[Gal(b1-4)GlcNAc(b1-3)Gal(b1-4)GlcNAc(b1-6)]Man(a1-6)[Gal(b1-4)GlcNAc(b1-3)Gal(b1-4)GlcNAc(b1-2)Man(a1-3)]Man(b1-4)GlcNAc(b1-4)GlcNAc
# Method in brief: as §1
# [3] = molecular target: Gal(b1-4)GlcNAc(b1-3)Gal(b1-4)GlcNAc(b1-2)[Gal(b1-4)GlcNAc(b1-3)Gal(b1-4)GlcNAc(b1-6)]Man(a1-6)[Gal(b1-4)GlcNAc(b1-3)Gal(b1-4)GlcNAc(b1-2)Man(a1-3)]Man(b1-4)GlcNAc(b1-4)[Fuc(a1-6)]GlcNAc
# Method in brief: as §1
# [4] = molecular target: Gal(b1-4)GlcNAc(b1-3)Gal(b1-4)GlcNAc(b1-3)Gal(b1-4)GlcNAc
# Method in brief: as §1
# [5] = molecular target: Gal(b1-4)GlcNAc(b1-3)Gal(b1-4)GlcNAc(b1-3)Gal(b1-4)GlcNAc(b1-2)Man(a1-3)[Gal(b1-4)GlcNAc(b1-3)Gal(b1-4)GlcNAc(b1-3)Gal(b1-4)GlcNAc(b1-2)Man(a1-6)]Man(b1-4)GlcNAc(b1-4)GlcNAc
# Method in brief: as §1
# [6] = molecular target: Gal(b1-4)GlcNAc(b1-3)Gal(b1-4)GlcNAc(b1-3)Gal(b1-4)GlcNAc(b1-2)Man(a1-3)[Gal(b1-4)GlcNAc(b1-3)Gal(b1-4)GlcNAc(b1-3)Gal(b1-4)GlcNAc(b1-2)Man(a1-6)]Man(b1-4)GlcNAc(b1-4)[Fuc(a1-6)]GlcNAc
# Method in brief: as §1
# [7] = molecular target: Gal(b1-4)GlcNAc(b1-3)Gal(b1-4)GlcNAc(b1-3)Gal(b1-4)GlcNAc(b1-2)[Gal(b1-4)GlcNAc(b1-3)Gal(b1-4)GlcNAc(b1-3)Gal(b1-4)GlcNAc(b1-6)]Man(a1-6)[Gal(b1-4)GlcNAc(b1-3)Gal(b1-4)GlcNAc(b1-3)Gal(b1-4)GlcNAc(b1-2)Man(a1-3)]Man(b1-4)GlcNAc(b1-4)[Fuc(a1-6)]GlcNAc
# Method in brief: as §1
# [8] = molecular target: Gal(b1-4)GlcNAc(b1-3)Gal(b1-4)GlcNAc(b1-3)Gal(b1-4)GlcNAc(b1-3)Gal(b1-4)GlcNAc(b1-2)Man(a1-3)[Gal(b1-4)GlcNAc(b1-3)Gal(b1-4)GlcNAc(b1-3)Gal(b1-4)GlcNAc(b1-3)Gal(b1-4)GlcNAc(b1-2)Man(a1-6)]Man(b1-4)GlcNAc(b1-4)GlcNAc
# Method in brief: as §1
# [9] = molecular target: Gal(b1-4)GlcNAc(b1-3)Gal(b1-4)GlcNAc(b1-3)Gal(b1-4)GlcNAc(b1-3)Gal(b1-4)GlcNAc(b1-2)Man(a1-3)[Gal(b1-4)GlcNAc(b1-3)Gal(b1-4)GlcNAc(b1-3)Gal(b1-4)GlcNAc(b1-3)Gal(b1-4)GlcNAc(b1-2)Man(a1-6)]Man(b1-4)GlcNAc(b1-4)[Fuc(a1-6)]GlcNAc
# Method in brief: as §1
# [10] = molecular target: Gal(b1-4)GlcNAc(b1-3)Gal(b1-4)GlcNAc(b1-3)Gal(b1-4)GlcNAc(b1-3)Gal(b1-4)GlcNAc(b1-2)[Gal(b1-4)GlcNAc(b1-3)Gal(b1-4)GlcNAc(b1-3)Gal(b1-4)GlcNAc(b1-3)Gal(b1-4)GlcNAc(b1-6)]Man(a1-6)[Gal(b1-4)GlcNAc(b1-3)Gal(b1-4)GlcNAc(b1-3)Gal(b1-4)GlcNAc(b1-3)Gal(b1-4)GlcNAc(b1-2)Man(a1-3)]Man(b1-4)GlcNAc(b1-4)[Fuc(a1-6)]GlcNAc
# Method in brief: as §1
# [11] = molecular target: Gal(b1-4)GlcNAc(b1-3)Gal(b1-4)GlcNAc(b1-3)Gal(b1-4)GlcNAc(b1-3)Gal(b1-4)GlcNAc(b1-3)Gal(b1-4)GlcNAc(b1-2)Man(a1-3)[Gal(b1-4)GlcNAc(b1-3)Gal(b1-4)GlcNAc(b1-3)Gal(b1-4)GlcNAc(b1-3)Gal(b1-4)GlcNAc(b1-3)Gal(b1-4)GlcNAc(b1-2)Man(a1-6)]Man(b1-4)GlcNAc(b1-4)GlcNAc
# Method in brief: as §1
# [12] = molecular target: Gal(b1-4)GlcNAc(b1-3)Gal(b1-4)GlcNAc(b1-3)Gal(b1-4)GlcNAc(b1-3)Gal(b1-4)GlcNAc(b1-3)Gal(b1-4)GlcNAc(b1-2)Man(a1-3)[Gal(b1-4)GlcNAc(b1-3)Gal(b1-4)GlcNAc(b1-3)Gal(b1-4)GlcNAc(b1-3)Gal(b1-4)GlcNAc(b1-3)Gal(b1-4)GlcNAc(b1-2)Man(a1-6)]Man(b1-4)GlcNAc(b1-4)[Fuc(a1-6)]GlcNAc
# Method in brief: as §1
# [13] = molecular target: Gal(b1-4)GlcNAc(b1-3)Gal(b1-4)GlcNAc(b1-3)Gal(b1-4)GlcNAc(b1-3)Gal(b1-4)GlcNAc(b1-3)Gal(b1-4)GlcNAc(b1-2)[Gal(b1-4)GlcNAc(b1-3)Gal(b1-4)GlcNAc(b1-3)Gal(b1-4)GlcNAc(b1-3)Gal(b1-4)GlcNAc(b1-3)Gal(b1-4)GlcNAc(b1-6)]Man(a1-6)[Gal(b1-4)GlcNAc(b1-3)Gal(b1-4)GlcNAc(b1-3)Gal(b1-4)GlcNAc(b1-3)Gal(b1-4)GlcNAc(b1-3)Gal(b1-4)GlcNAc(b1-2)Man(a1-3)]Man(b1-4)GlcNAc(b1-4)[Fuc(a1-6)]GlcNAc
# Method in brief: as §1
# [14] = molecular target: Gal(b1-4)GlcNAc(b1-3)Gal(b1-4)GlcNAc(b1-3)Gal(b1-4)GlcNAc(b1-3)Gal(b1-4)GlcNAc(b1-3)Gal(b1-4)GlcNAc(b1-3)Gal(b1-4)GlcNAc(b1-2)Man(a1-3)[Gal(b1-4)GlcNAc(b1-3)Gal(b1-4)GlcNAc(b1-3)Gal(b1-4)GlcNAc(b1-3)Gal(b1-4)GlcNAc(b1-3)Gal(b1-4)GlcNAc(b1-3)Gal(b1-4)GlcNAc(b1-2)Man(a1-6)]Man(b1-4)GlcNAc(b1-4)GlcNAc
# Method in brief: as §1
# [15] = molecular target: Gal(b1-4)GlcNAc(b1-3)Gal(b1-4)GlcNAc(b1-3)GalNAc
# Method in brief: as §1
# [16] = molecular target: Gal(b1-4)GlcNAc(b1-3)Gal(b1-4)GlcNAc(b1-3)[Gal(b1-4)GlcNAc(b1-3)Gal(b1-4)GlcNAc(b1-6)]GalNAc
# Method in brief: as §1
# [17] = molecular target: Gal(b1-4)GlcNAc(b1-3)Gal(b1-4)GlcNAc(b1-6)[Gal(b1-3)]GalNAc
# Method in brief: as §1
# [18] = molecular target: Gal(b1-4)GlcNAc(b1-3)Gal(b1-4)[Fuc(a1-3)]GlcNAc(b1-3)Gal(b1-4)[Fuc(a1-3)]GlcNAc
# Method in brief: as §1
# [19] = molecular target: Gal(b1-4)GlcNAc(b1-3)GalNAc
# Method in brief: as §1
# [20] = molecular target: Gal(b1-4)GlcNAc(b1-3)[Fuc(a1-3)GlcNAc(b1-6)]Gal(b1-4)Glc
# Method in brief: as §1
# [21] = molecular target: Gal(b1-4)GlcNAc(b1-3)[Gal(b1-4)GlcNAc(b1-6)]Gal(b1-4)GlcNAc
# Method in brief: as §1
# [22] = molecular target: Gal(b1-4)GlcNAc(b1-3)[GlcNAc(b1-6)]Gal(b1-4)GlcNAc
# Method in brief: as §1
# [23] = molecular target: Gal(b1-4)GlcNAc(b1-6)Gal(b1-4)GlcNAc
# Method in brief: as §1
# [24] = molecular target: Gal(b1-4)GlcNAc(b1-6)GalNAc
# Method in brief: as §1
# [25] = molecular target: Gal(b1-4)GlcNAc(b1-6)[Gal(b1-3)]GalNAc
# Method in brief: as §1
# [26] = molecular target: Gal(b1-4)GlcNAc(b1-6)[Gal(b1-4)GlcNAc(b1-3)]GalNAc
# Method in brief: as §1
# Gal(b1-4)GlcNAc6P = molecular target: Gal(b1-4)GlcNAc6P
# Method in brief: as §1
# Gal(b1-6)Gal = molecular target: Gal(b1-6)Gal
# Method in brief: as §1
# Gal3S(b1-3)GalNAc = molecular target: Gal3S(b1-3)GalNAc
# Method in brief: as §1
# Gal3S(b1-3)GlcNAc = molecular target: Gal3S(b1-3)GlcNAc
# Method in brief: as §1
# [27] = molecular target: Gal3S(b1-3)[Fuc(a1-4)]GlcNAc
# Method in brief: as §1
# Gal3S(b1-4)Glc = molecular target: Gal3S(b1-4)Glc
# Method in brief: as §1
# Gal3S(b1-4)Glc6S = molecular target: Gal3S(b1-4)Glc6S
# Method in brief: as §1
# Gal3S(b1-4)GlcNAc = molecular target: Gal3S(b1-4)GlcNAc
# Method in brief: as §1
# [28] = molecular target: Gal3S(b1-4)[Fuc(a1-3)]Glc6S
# Method in brief: as §1
# [29] = molecular target: Gal3S(b1-4)[Fuc(a1-3)]GlcNAc
# Method in brief: as §1
# [30] = molecular target: Gal3S(b1-4)[Fuc(a1-3)]GlcNAc6S
# Method in brief: as §1
# Gal3S4S(b1-4)GlcNAc = molecular target: Gal3S4S(b1-4)GlcNAc
# Method in brief: as §1
# Gal3S6S(b1-4)GlcNAc = molecular target: Gal3S6S(b1-4)GlcNAc
# Method in brief: as §1
# Gal3S6S(b1-4)GlcNAc6S = molecular target: Gal3S6S(b1-4)GlcNAc6S
# Method in brief: as §1
# Gal4S(b1-4)GlcNAc = molecular target: Gal4S(b1-4)GlcNAc
# Method in brief: as §1
# Gal4S6S(b1-4)GlcNAc = molecular target: Gal4S6S(b1-4)GlcNAc
# Method in brief: as §1
# Gal6P(b1-4)GlcNAc = molecular target: Gal6P(b1-4)GlcNAc
# Method in brief: as §1
# Gal6S(b1-3)GlcNAc = molecular target: Gal6S(b1-3)GlcNAc
# Method in brief: as §1
# Gal6S(b1-3)GlcNAc6S = molecular target: Gal6S(b1-3)GlcNAc6S
# Method in brief: as §1
binder,measurement,setting,value
B1,glycan array binding signal (z-score),[1],0.981
same,glycan array binding signal (z-score),[2],2.58
same,glycan array binding signal (z-score),[3],-0.94
same,glycan array binding signal (z-score),[4],-0.296
same,glycan array binding signal (z-score),[5],0.189
same,glycan array binding signal (z-score),[6],0.851
same,glycan array binding signal (z-score),[7],0.537
same,glycan array binding signal (z-score),[8],-0.697
same,glycan array binding signal (z-score),[9],-0.22
same,glycan array binding signal (z-score),[10],0.423
same,glycan array binding signal (z-score),[11],-0.161
same,glycan array binding signal (z-score),[12],-0.178
same,glycan array binding signal (z-score),[13],-0.023
same,glycan array binding signal (z-score),[14],0.838
same,glycan array binding signal (z-score),[15],1.97
same,glycan array binding signal (z-score),[16],0.532
same,glycan array binding signal (z-score),[17],-0.5
same,glycan array binding signal (z-score),[18],-0.847
same,glycan array binding signal (z-score),[19],-0.598
same,glycan array binding signal (z-score),[20],0.441
same,glycan array binding signal (z-score),[21],-0.79
same,glycan array binding signal (z-score),[22],0.941
same,glycan array binding signal (z-score),[23],0.796
same,glycan array binding signal (z-score),[24],-0.125
same,glycan array binding signal (z-score),[25],0.603
same,glycan array binding signal (z-score),[26],-0.112
same,glycan array binding signal (z-score),Gal(b1-4)GlcNAc6P,0.074
same,glycan array binding signal (z-score),Gal(b1-6)Gal,1.66
same,glycan array binding signal (z-score),Gal3S(b1-3)GalNAc,0.776
same,glycan array binding signal (z-score),Gal3S(b1-3)GlcNAc,0.293
same,glycan array binding signal (z-score),[27],1.34
same,glycan array binding signal (z-score),Gal3S(b1-4)Glc,1.83
same,glycan array binding signal (z-score),Gal3S(b1-4)Glc6S,-0.078
same,glycan array binding signal (z-score),Gal3S(b1-4)GlcNAc,-0.601
same,glycan array binding signal (z-score),[28],0.197
same,glycan array binding signal (z-score),[29],0.867
same,glycan array binding signal (z-score),[30],1.44
same,glycan array binding signal (z-score),Gal3S4S(b1-4)GlcNAc,0.677
same,glycan array binding signal (z-score),Gal3S6S(b1-4)GlcNAc,0.324
same,glycan array binding signal (z-score),Gal3S6S(b1-4)GlcNAc6S,1.42
same,glycan array binding signal (z-score),Gal4S(b1-4)GlcNAc,-0.517
same,glycan array binding signal (z-score),Gal4S6S(b1-4)GlcNAc,-0.533
same,glycan array binding signal (z-score),Gal6P(b1-4)GlcNAc,0.361
same,glycan array binding signal (z-score),Gal6S(b1-3)GlcNAc,0.224
same,glycan array binding signal (z-score),Gal6S(b1-3)GlcNAc6S,0.99

# Reformatted: results already given
binder | measurement | setting | value
B1 | glycan array binding signal (z-score) | [4] | -0.296
same | glycan array binding signal (z-score) | [11] | -0.161
